Test results from PubChem BioAssay AID2685 (National Center for Advancing Translational Sciences (NCATS), 2010).
“And” between values parts separate entries of the source, which are not always exact repeats. Identical values can stand only once. The list shows a part of the results. These are further read-outs of the screen, such as a control signal, another cell line or another target. No call is given for them. The list favours compounds with an active or inconclusive main result. The note in brackets gives the kind of curve behind each potency; many fits are weak.

Assay: qHTS Assay for Lipid Storage Modulators in Drosophila S3 Cells;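 on cell number change: cells counted by Cell Tracker Red CMTPX staining in the red channel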
Conditions: BODIPY lipid droplet fluorescence, 18-24 h; for cell number change: measured here: cell count max response, cells fed with added oleic acid
Outline: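 Laser-scanning cytometry quantifies lipid droplet accumulation (500–530 nm total intensity; droplet/cell object ratio) in oleic acid-fed (400 uM added) Drosophila S3 cells treated with a concentration series. 20 uM Triacsin C defined 100% inhibition.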

[1] = measured here: cell number channel AC50, cells fed with added oleic acid
[2] = measured here: lipid fluorescence (Fed channel) AC50, cells fed with added oleic acid

Structure (SMILES): CCN1CCN(c2ccc(N)cc2C)CC1
- cell number change: 92.1%
- AC50 [1]: 25.9 µM [rising, partial curve]

Structure (SMILES): C=CCOC(=O)C1=C(C)OC(N)=C(C#N)C12C(=O)N(CN1CCOCC1)c1ccccc12 (stereo not given)
- cell number change: -5.18%

Structure (SMILES): N/C(=N/[N+](=O)[O-])N1CCN(C(=O)Oc2ccc([N+](=O)[O-])cc2)CC1
- cell number change: -20.4%
- AC50 [2]: 0.411 µM [falling, full curve]

Structure (SMILES): COc1ccc2c(c1OC)C(=O)OC2c1c(O)n(C2CCCCC2)c(=O)[nH]c1=O (stereo not given)
- cell number change: -2.56%
- AC50 [1]: 0.00517 µM [falling, full curve, poor fit]
- AC50 [2]: 0.291 µM [falling, full curve, poor fit]

Structure (SMILES): CCOc1ccc(Cc2c(O)[nH]c(=O)[nH]c2=O)cc1
- cell number change: -5.47%

Structure (SMILES): O=C(C1CCCN(c2nnc(-n3cccc3)s2)C1)N1CCC2(CC1)OCCO2 (stereo not given)
- AC50 [2]: 6.51 µM [rising, single point]

Structure (SMILES): OC12ONC(c3ccccn3)C1N1CCC2CC1 (stereo not given)
- cell number change: 48.7%
- AC50 [1]: 5.17 µM [rising, full curve]
- AC50 [2]: 2.06 µM [rising, full curve]

Structure (SMILES): CCN(CC)P(=O)(Oc1ccccc1)Oc1ccccc1
- cell number change: 17.1%
- AC50 [1]: 0.00461 µM [rising, full curve, poor fit]

Structure (SMILES): CCC(COC(=O)c1cc(OC)c(OC)c(OC)c1)(c1ccccc1)N(C)C (stereo not given)
- cell number change: -14.9% and -4.14%
- AC50 [2]: 20.6 µM [rising, single point]

Structure (SMILES): COc1cc2[nH]c(=O)n(-c3ccc(C)cc3)c(=O)c2cc1OC
- cell number change: 19.7%
- AC50 [2]: 1.3 µM [rising, partial curve]

Structure (SMILES): CCn1ccnc1CN1CCCC(C(=O)c2cc(C)c(OC)c(C)c2)C1 (stereo not given)
- cell number change: 15.7%
- AC50 [2]: 29.1 µM [falling, single point]

Structure (SMILES): CCc1ccccc1N1C(=O)NC(=O)/C(=C\c2cc(C)n(C)c2C)C1=O
- AC50 [1]: 0.517 µM [rising, single point]
- AC50 [2]: 29.1 µM [rising, single point]

Structure (SMILES): COc1cc2[nH]c(=O)n(-c3cccc(Cl)c3)c(=O)c2cc1OC
- cell number change: 84.6%
- AC50 [1]: 16.4 µM [rising, single point]

Structure (SMILES): COc1ccccc1OCC(=O)N1CCCC(N(C)Cc2ccccc2)C1 (stereo not given)
- AC50 [2]: 29.1 µM [rising, single point]

Structure (SMILES): CN(C)C1=NP(N(C)C)(N(C)C)=NC(c2ccccc2)=N1
- cell number change: -17.3%

Structure (SMILES): CC(=O)Nc1ccccc1C(=O)C(=O)Nc1cccc(C(=O)N2CCC3(CC2)OCCO3)c1
- AC50 [2]: 0.731 µM [falling, single point]

Structure (SMILES): O=C(C1CC(=O)N(C2CCCCCCC2)C1)N1CCC2(CC1)OCCO2 (stereo not given)
- cell number change: -32.9%
- AC50 [1]: 9.2 µM [falling, partial curve, poor fit]
- AC50 [2]: 14.6 µM [falling, partial curve]

Structure (SMILES): CC(=O)c1cn(Cc2ccc(F)cc2)c2ccccc12
- cell number change: 24.9%
- AC50 [2]: 20.6 µM [rising, single point]

Structure (SMILES): Cc1cc(C)nc(N2Cc3ccccc3C2=N)n1
- cell number change: 15.4%
- AC50 [2]: 0.00411 µM [rising, full curve, poor fit]

Structure (SMILES): Cc1ccc(NC2=NCCCS2)cc1Cl
- cell number change: 9.66%
- AC50 [2]: 6.51 µM [falling, single point]

Structure (SMILES): CCOc1cccc(N2C(=O)CC(=O)NC2=O)c1
- cell number change: -217%

Structure (SMILES): O=c1[nH]c(=O)n(Cc2ccc(F)cc2)c(O)c1C=NCCCN1CCOCC1
- cell number change: -10.1%
- AC50 [1]: 1.16 µM [falling, full curve, poor fit]

Structure (SMILES): Cc1cccc(OP(N)(N)=O)c1C
- cell number change: -8.1%
- AC50 [1]: 0.13 µM [falling, partial curve, poor fit]

Structure (SMILES): O=c1[nH]c(=O)n(CCC2=CCCCC2)c(O)c1C=NCc1cccnc1
- cell number change: 10.5%
- AC50 [2]: 6.51 µM [falling, single point]

Structure (SMILES): Cn1cc(C(=O)Cc2ccccc2)c2ccccc21
- cell number change: 21.5%
- AC50 [2]: 4.61 µM [rising, partial curve, poor fit]

Structure (SMILES): COc1ccc(Cl)cc1C(=O)C1CCCN(Cc2cnc(C)s2)C1 (stereo not given)
- cell number change: -3.61%
- AC50 [2]: 0.58 µM [falling, full curve, poor fit]

Structure (SMILES): C=CCn1c(O)c(C=NCCN(C)C)c(=O)[nH]c1=O
- cell number change: 131%
- AC50 [2]: 0.00411 µM [rising, full curve, poor fit]

Structure (SMILES): COc1cccc(N=Cc2c(O)n(Cc3ccco3)c(=O)[nH]c2=O)c1
- cell number change: 11.3%
- AC50 [2]: 1.64 µM [rising, single point]

Structure (SMILES): CCCCn1c(O)c(C(C)=NCCCN(CC)CC)c(=O)[nH]c1=O
- AC50 [2]: 23.1 µM [falling, partial curve]

Structure (SMILES): CCC1(CC)C(=O)N(C)C(=O)NC1=NC
- cell number change: 22.9%
- AC50 [2]: 23.1 µM [rising, single point]

Structure (SMILES): O=C1NC(=O)C2(Cc3ccccc3N3CCCC32)C(=O)N1c1cccc(Cl)c1 (stereo not given)
- cell number change: 0.101%
- AC50 [2]: 0.146 µM [falling, full curve, poor fit]

Structure (SMILES): O=C(COc1ccc2ccccc2c1)N1CCN(C2CCN(Cc3ccccc3)CC2)CC1
- AC50 [2]: 0.82 µM [falling, single point]

Structure (SMILES): COc1ccc(OC)c(-n2c(O)c(C=NCc3ccc4c(c3)OCO4)c(=O)[nH]c2=O)c1
- cell number change: -12.5%

Structure (SMILES): CC(=NCCC1=CCCCC1)c1c(O)[nH]c(=O)[nH]c1=O
- cell number change: -48.3%
- AC50 [1]: 3.66 µM [falling, full curve]
- AC50 [2]: 3.26 µM [falling, full curve]

Structure (SMILES): O=C(C1CCN(S(=O)(=O)N2CCOCC2)CC1)N1CCC2(CC1)OCCO2
- cell number change: -6.59%
- AC50 [2]: 29.1 µM [rising, single point]

Structure (SMILES): CC1CCN(CC(=O)c2cccc(C(F)(F)F)c2)CC1
- cell number change: 2.13%

Structure (SMILES): CNC(=O)Oc1ccc(-c2cn3cc(C)ccc3n2)cc1
- cell number change: 1.58%
- AC50 [2]: 0.184 µM [rising, partial curve, poor fit]

Structure (SMILES): O=P(Oc1ccccc1)(Oc1ccccc1)C(O)c1ccc(Cl)cc1 (stereo not given)
- cell number change: -49.8%
- AC50 [1]: 20.6 µM [falling, single point]

Structure (SMILES): Nc1c(C(=O)NCc2ccco2)c2nc3ccccc3nc2n1Cc1ccc(F)cc1
- cell number change: -83.6%
- AC50 [1]: 3.26 µM [rising, partial curve, poor fit]
- AC50 [2]: 0.58 µM [rising, single point]

Structure (SMILES): CCN(CC)c1ccc(N=Cc2c(O)n(Cc3ccccc3)c(=O)[nH]c2=O)cc1
- cell number change: 30.8% and 21.3%
- AC50 [1]: 2.59 µM [rising, full curve]
- AC50 [2]: 5.8 µM [rising, partial curve] and 14.6 µM [rising, partial curve, poor fit]
